Test results as given in patent publication US9708318B2, “Bicyclic heterocycles as FGFR4 inhibitors” (Incyte Corporation, priority 2015, dated 2017).
For at least one compound, name, drawing or mass did not settle the structure.

Sequences of proteins named here, by UniProt entry; tags and fusion partners are left off. Residues count along the entry.
UniProt P22607, 23-806: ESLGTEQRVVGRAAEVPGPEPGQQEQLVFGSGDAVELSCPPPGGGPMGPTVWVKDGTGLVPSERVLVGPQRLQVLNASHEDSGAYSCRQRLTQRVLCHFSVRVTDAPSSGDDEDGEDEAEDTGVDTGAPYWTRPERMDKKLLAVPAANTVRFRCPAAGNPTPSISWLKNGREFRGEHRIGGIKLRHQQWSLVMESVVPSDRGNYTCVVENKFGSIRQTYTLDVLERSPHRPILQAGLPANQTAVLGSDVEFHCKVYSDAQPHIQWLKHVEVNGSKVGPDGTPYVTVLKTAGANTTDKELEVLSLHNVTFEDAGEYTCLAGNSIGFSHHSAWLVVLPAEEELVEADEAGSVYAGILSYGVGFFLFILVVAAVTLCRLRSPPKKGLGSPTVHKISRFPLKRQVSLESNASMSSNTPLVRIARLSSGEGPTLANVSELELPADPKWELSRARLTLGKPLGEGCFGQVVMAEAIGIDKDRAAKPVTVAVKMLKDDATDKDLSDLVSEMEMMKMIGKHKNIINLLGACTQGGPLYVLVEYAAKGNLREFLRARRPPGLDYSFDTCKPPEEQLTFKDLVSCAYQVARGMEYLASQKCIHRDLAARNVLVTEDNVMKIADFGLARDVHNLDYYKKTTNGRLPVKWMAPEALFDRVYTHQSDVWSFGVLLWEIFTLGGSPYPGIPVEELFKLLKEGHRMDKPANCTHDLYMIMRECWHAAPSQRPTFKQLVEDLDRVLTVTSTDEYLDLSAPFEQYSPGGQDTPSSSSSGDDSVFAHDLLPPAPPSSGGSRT

Target: FGFR3 enzyme (Homo sapiens (Human), UniProt P22607)
Test: FGFR Enzymatic Assay (FRET peptide phosphorylation), FGFR3
Type: biochemical
Conditions: FGFR3 selectivity; pre-incubated for 4 hours
Protocol: The inhibitor potency of the exemplified compounds was measured in an enzyme assay that measures peptide phosphorylation using FRET measurements to detect product formation. Inhibitors were serially diluted in DMSO and a volume of 0.5 μL was transferred to the wells of a 384-well plate.
GraphPad prism3 was used to analyze the data.

For `COc1cc(OC)c(F)c(N2Cc3cnc(-c4cnn(C5CN(S(C)(=O)=O)C5)c4)cc3C3(CC3)C2=O)c1F` [Example 55, 2′-(2,6-difluoro-3,5-dimethoxyphenyl)-6′-(1-(1-(methylsulfonyl)azetidin-3-yl)-1H-pyrazol-4-yl)-1′H-spiro[cyclopropane-1,4′-[2,7]naphthyridin]-3′(2′H)-one], the “FGFR1/FGFR3 IC50 ratio” value was over 10 and the “FGFR4/FGFR3 IC50 ratio” value was over 5.
